Data as given in paper PMC6214896.
These are yes or no findings as the source states them, for the method shown. In cells and extracts the contact can be indirect. Here binding means that the protein was enriched with, or labelled near, the bait; the list need not be complete.

Chains of the proteins cited; added tags and fusions are not shown.
UniProt Q9Z2D8: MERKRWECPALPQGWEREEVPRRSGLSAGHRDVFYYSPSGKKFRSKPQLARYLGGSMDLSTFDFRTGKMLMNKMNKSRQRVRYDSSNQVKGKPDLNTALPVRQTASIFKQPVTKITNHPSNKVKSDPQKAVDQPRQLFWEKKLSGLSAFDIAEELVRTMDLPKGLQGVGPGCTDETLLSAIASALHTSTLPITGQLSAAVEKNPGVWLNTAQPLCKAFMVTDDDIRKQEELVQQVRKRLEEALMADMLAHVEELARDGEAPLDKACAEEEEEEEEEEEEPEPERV
UniProt O09106: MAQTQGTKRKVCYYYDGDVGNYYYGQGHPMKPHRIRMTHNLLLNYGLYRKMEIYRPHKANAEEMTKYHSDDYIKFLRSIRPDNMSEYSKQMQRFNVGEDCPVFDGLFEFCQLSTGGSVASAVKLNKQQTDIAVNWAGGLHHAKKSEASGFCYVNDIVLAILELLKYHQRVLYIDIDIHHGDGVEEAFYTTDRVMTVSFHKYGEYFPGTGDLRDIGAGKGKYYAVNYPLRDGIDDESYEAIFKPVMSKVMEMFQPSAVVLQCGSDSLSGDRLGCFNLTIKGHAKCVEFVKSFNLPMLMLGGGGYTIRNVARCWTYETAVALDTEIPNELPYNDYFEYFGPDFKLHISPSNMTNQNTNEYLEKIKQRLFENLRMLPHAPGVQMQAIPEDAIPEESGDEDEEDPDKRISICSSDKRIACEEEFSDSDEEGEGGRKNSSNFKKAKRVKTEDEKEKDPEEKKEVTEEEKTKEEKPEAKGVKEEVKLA

Target: MBD3-GFP (mouse) (UniProt Q9Z2D8)
Assay: affinity purification with mass spectrometry; label-free GFP pulldown in triplicate: MBD3-GFP held on GFP-Trap beads from 2 mg ESC nuclear extract; Buffer C with 300 mM NaCl, 0.1% NP-40, 50 ug/mL ethidium bromide; on-bead digestion, nLC-MS/MS

Which binding does the source give for “HDAC1 (from UniProt O09106 1-482) (enzyme)” here?
The binding was “binds”.
